The source of these data is PMC4453921, “Crystal structure of caspase recruiting domain (CARD) of apoptosis repressor with CARD (ARC) and its implication in inhibition of apoptosis” (Scientific Reports, 2015).

Residue numbers refer to the chain shown, from its start. Numbers in names are those of the source. These are yes or no findings as the source states them, for the method shown.

Assay [1] concerns the target ARC CARD domain (amino acids 1-95), wild type (human) (UniProt O60936). Kind of assay: SEC-MALS; size exclusion chromatography and MALS at low pH (pH 3); both purified. For orientation: In gel filtration, larger molecules generally elute earlier.
Assay [2] has the same target. Kind of assay: SEC-MALS; size exclusion chromatography and MALS in the presence of high salt (1.5 M NaCl); both purified.
Assay [3] has as its target ARC CARD (1-95) R56E (human) (UniProt O60936). Kind of assay: SEC-MALS; Superdex 200 HR 10/30 equilibrated in appropriate buffer, coupled to three-angle light scattering and refractive index detectors, 0.2 ml/min; both purified.
Assay [4] shares this target. Kind of assay: native gel or EMSA; native PAGE, Phast System, 8-25% gradient gels; separately purified proteins pre-incubated at room temperature for 1 hour; Coomassie staining; both purified.
Assay [5] deals with ARC CARD (1-95) double mutant D49R, R59E (human) (UniProt O60936). The description is as above.
In assay [6] the target is ARC CARD (1-95) R59E (human) (UniProt O60936). Kind of assay: SEC-MALS; Superdex 200 HR 10/30 equilibrated in appropriate buffer, coupled to three-angle light scattering and refractive index detectors, 0.2 ml/min; both purified.
The target is the same in assay [7]. Kind of assay: native gel or EMSA; native PAGE, Phast System, 8-25% gradient gels; separately purified proteins pre-incubated at room temperature for 1 hour; Coomassie staining; both purified. In general terms: In EMSA bound probe runs differently from free probe, usually more slowly.

B1: ARC CARD domain (amino acids 1-95), wild type (domain or fragment, human, UniProt O60936 1-95, looked up)
chain: MGNAQERPSETIDRERKRLVETLQADSGLLLDALLARGVLTGPEYEALDALPDAERRVRRLLLLVQGKGEAACQELLRCAQRTAGAPDPAWDWQH
notes: Apoptosis repressor with caspase recruiting domain (ARC), human (208 amino acids), CARD domain, amino acids 1-95; Expression and purification are said to be described in detail elsewhere; A selenomethionine-substituted form was made for SAD phasing; also called CARD domain of ARC; caspase recruiting domain of apoptosis repressor with CARD; not shown: His-tag, C-terminal, kept
B1: the binding result in assay [1] is “no binding (condition: at pH 3)”; in assay [2] it was “no binding (condition: with 1.5 M NaCl)”.

B2: ARC CARD (1-95) R56E (domain or fragment, UniProt O60936 1-95)
chain: B1 chain with R56E
With B2, the binding entry in assay [3] and in assay [4] was “no binding” throughout.

B3: ARC CARD (1-95) double mutant D49R, R59E (domain or fragment, UniProt O60936 1-95)
chain: B1 chain with D49R, R59E
As for B3, the binding result in assay [5] is given as “no binding”.

B4: ARC CARD (1-95) R59E (domain or fragment, UniProt O60936 1-95)
chain: B1 chain with R59E
With B4, the binding result in assay [6] and in assay [7] was “no binding” throughout.
